From patent US10159726B2, “Peptides, combination of peptides and scaffolds for use in immunotherapeutic treatment of various cancers” (Immatics Biotechnologies GmbH, priority 2015, dated 2018)

Tested on: HLA-A*24 molecules of primary tumors
Experiment: Identification and relative LC-MS quantitation of HLA-A*24 tumor-associated peptides presented on tissue samples (XPRESIDENT presentation profiles)
Parameters: species or system human
Conditions: for ENTITIES: Table 9A: selected HLA-A*24-binding tumor-associated peptides, cancer entities on which the peptide was found presented; for Peptide Presentation on cancer entities: Table 9B: selected HLA-A*24 peptides, presentation on additional cancer entities

Substance	ENTITIES	Peptide Presentation on cancer entities
297 (TYIDTRTVF; listed as Homo sapiens) [compound 297]	PCA, HCC, NSCLC, GC	
298 (AYKSEVVYF; listed as Homo sapiens) [compound 298]	NSCLC, GB	
299 (KYQYVLNEF; listed as Homo sapiens) [compound 299]	NSCLC, GC, GB	
300 (TYPSQLPSL; listed as Homo sapiens) [compound 300]	CRC, GC	
301 (KFDDVTMLF; listed as Homo sapiens) [compound 301]	NSCLC, GC, HCC	
302 (LYLPVHYGF; listed as Homo sapiens) [compound 302]		NSCLC
303 (LYSVIKEDF; listed as Homo sapiens) [compound 303]	GB, PCA, HCC, NSCLC, GC	
305 (NYENKQYLF; listed as Homo sapiens) [compound 305]	NSCLC, GB, HCC	
306 (VYPAEQPQI; listed as Homo sapiens) [compound 306]	NSCLC	
307 (GYAFTLPLF; listed as Homo sapiens) [compound 307]	NSCLC, GC	
309 (KYYRQTLLF; listed as Homo sapiens) [compound 309]	PCA, HCC, NSCLC, GC, GB	
310 (IYAPTLLVF; listed as Homo sapiens) [compound 310]	GC, GB, RCC, HCC, NSCLC	
311 (EYLQNLNHI; listed as Homo sapiens) [compound 311]	PCA	
312 (SYTSVLSRL; listed as Homo sapiens) [compound 312]	PCA, HCC, NSCLC	
313 (KYTHFIQSF; listed as Homo sapiens) [compound 313]	NSCLC, GC, RCC, GB, PCA, HCC	
315 (FYIPHVPVSF; listed as Homo sapiens) [compound 315]	HCC, NSCLC	
316 (VYFEGSDFKF; listed as Homo sapiens) [compound 316]	GB, PCA, HCC, NSCLC	
318 (TYSNSAFQYF; listed as Homo sapiens) [compound 318]	GC, RCC, PCA, HCC, NSCLC	
319 (KYSDVKNLI; listed as Homo sapiens) [compound 319]	PCA, HCC, NSCLC, GB	
341 (SYLTQHQRI; listed as Homo sapiens) [compound 341]	PCA, NSCLC	
346 (IYVIPQPHF; listed as Homo sapiens) [compound 346]	NSCLC, GC, GB, HCC	

Substance	ENTITIES	Peptide Presentation on cancer entities
349 (QYSIISNVF; listed as Homo sapiens) [compound 349]	GC, HCC, NSCLC	
351 (IFHEVPLKF; listed as Homo sapiens) [compound 351]	HCC, NSCLC	
353 (TYGKIDLGF; listed as Homo sapiens) [compound 353]	HCC, NSCLC, GC, GB	
355 (IYVTGGHLF; listed as Homo sapiens) [compound 355]	HCC, NSCLC, GC, RCC, GB, PCA	
356 (NYMPGQLTI; listed as Homo sapiens) [compound 356]	RCC, NSCLC, GC	
357 (QFITSTNTF; listed as Homo sapiens) [compound 357]	NSCLC	
358 (YYSEVPVKL; listed as Homo sapiens) [compound 358]	NSCLC, GB	
359 (NYGVLHVTF; listed as Homo sapiens) [compound 359]	RCC, HCC, NSCLC	
362 (VYNYAEQTL; listed as Homo sapiens) [compound 362]	GC, GB, NSCLC	
364 (KYLNENQLSQL; listed as Homo sapiens) [compound 364]		NSCLC
365 (VFIDHPVHL; listed as Homo sapiens) [compound 365]	NSCLC, GB	
366 (QYLELAHSL; listed as Homo sapiens) [compound 366]	HCC, NSCLC, GC	
367 (LYQDHMQYI; listed as Homo sapiens) [compound 367]	HCC, NSCLC, GC, GB, PCA	
368 (KYQNVKHNL; listed as Homo sapiens) [compound 368]	NSCLC, HCC	
370 (RFIGIPNQF; listed as Homo sapiens) [compound 370]	PCA	
371 (AYSHLRYVF; listed as Homo sapiens) [compound 371]	GB, PCA, HCC, NSCLC	
373 (GYISNGELF; listed as Homo sapiens) [compound 373]	PCA, HCC	
375 (KYTDYILKI; listed as Homo sapiens) [compound 375]	NSCLC	
378 (VYIAELEKI; listed as Homo sapiens) [compound 378]	HCC, NSCLC	
379 (VFIAQGYTL; listed as Homo sapiens) [compound 379]		NSCLC
380 (VYTGIDHHW; listed as Homo sapiens) [compound 380]	NSCLC, GC, RCC, GB, PCA, HCC	

Substance	ENTITIES	Peptide Presentation on cancer entities
381 (KYPASSSVF; listed as Homo sapiens) [compound 381]		RCC, NSCLC
383 (RYKPGEPITF; listed as Homo sapiens) [compound 383]	GB, PCA, HCC, NSCLC	
384 (RYFDVGLHNF; listed as Homo sapiens) [compound 384]	GC, GB, PCA, HCC, NSCLC	
385 (QYIEELQKF; listed as Homo sapiens) [compound 385]	NSCLC, HCC	
386 (TFSDVEAHF; listed as Homo sapiens) [compound 386]	HCC, NSCLC, GC, GB	
387 (KYTEKLEEI; listed as Homo sapiens) [compound 387]	HCC, NSCLC, GB, PCA	
388 (IYGEKTYAF; listed as Homo sapiens) [compound 388]	HCC, NSCLC, GC, RCC, GB, PCA	
389 (EYLPEFLHTF; listed as Homo sapiens) [compound 389]	NSCLC	
390 (RYLWATVTI; listed as Homo sapiens) [compound 390]	GC, HCC, NSCLC	
392 (RYLDSLKAIVF; listed as Homo sapiens) [compound 392]	NSCLC, GC, RCC, HCC	
393 (KYIEAIQWI; listed as Homo sapiens) [compound 393]	HCC, NSCLC	
395 (LYINKANIW; listed as Homo sapiens) [compound 395]	NSCLC, GC, HCC	
402 (VWSDVTPLTF; listed as Homo sapiens) [compound 402]	NSCLC, CRC, GC, RCC, GB, PCA, HCC	
406 (TYSEKTTLF; listed as Homo sapiens) [compound 406]	NSCLC, GC	
407 (VYGIRLEHF; listed as Homo sapiens) [compound 407]	HCC, NSCLC, GC, GB	
410 (RFLSGIINF; listed as Homo sapiens) [compound 410]	NSCLC, GC, GB, HCC	
411 (VYIGHTSTI; listed as Homo sapiens) [compound 411]	NSCLC	
412 (SYNPLWLRI; listed as Homo sapiens) [compound 412]	GB, RCC, HCC, NSCLC, GC	
413: peptide found in MST1R (gene looked up) (NYLLYVSNF; listed as Homo sapiens) [compound 413]	HCC, NSCLC, GC	
